{
  "sequences": {"note": "The chains behind the UniProt entries cited, without tags or fusion partners. Where a name states a change or a piece, a line headed by the entry shows the natural chain unless it says otherwise. Residues count along the entry.", "UniProt Q9UM54, whole entry, looked up": "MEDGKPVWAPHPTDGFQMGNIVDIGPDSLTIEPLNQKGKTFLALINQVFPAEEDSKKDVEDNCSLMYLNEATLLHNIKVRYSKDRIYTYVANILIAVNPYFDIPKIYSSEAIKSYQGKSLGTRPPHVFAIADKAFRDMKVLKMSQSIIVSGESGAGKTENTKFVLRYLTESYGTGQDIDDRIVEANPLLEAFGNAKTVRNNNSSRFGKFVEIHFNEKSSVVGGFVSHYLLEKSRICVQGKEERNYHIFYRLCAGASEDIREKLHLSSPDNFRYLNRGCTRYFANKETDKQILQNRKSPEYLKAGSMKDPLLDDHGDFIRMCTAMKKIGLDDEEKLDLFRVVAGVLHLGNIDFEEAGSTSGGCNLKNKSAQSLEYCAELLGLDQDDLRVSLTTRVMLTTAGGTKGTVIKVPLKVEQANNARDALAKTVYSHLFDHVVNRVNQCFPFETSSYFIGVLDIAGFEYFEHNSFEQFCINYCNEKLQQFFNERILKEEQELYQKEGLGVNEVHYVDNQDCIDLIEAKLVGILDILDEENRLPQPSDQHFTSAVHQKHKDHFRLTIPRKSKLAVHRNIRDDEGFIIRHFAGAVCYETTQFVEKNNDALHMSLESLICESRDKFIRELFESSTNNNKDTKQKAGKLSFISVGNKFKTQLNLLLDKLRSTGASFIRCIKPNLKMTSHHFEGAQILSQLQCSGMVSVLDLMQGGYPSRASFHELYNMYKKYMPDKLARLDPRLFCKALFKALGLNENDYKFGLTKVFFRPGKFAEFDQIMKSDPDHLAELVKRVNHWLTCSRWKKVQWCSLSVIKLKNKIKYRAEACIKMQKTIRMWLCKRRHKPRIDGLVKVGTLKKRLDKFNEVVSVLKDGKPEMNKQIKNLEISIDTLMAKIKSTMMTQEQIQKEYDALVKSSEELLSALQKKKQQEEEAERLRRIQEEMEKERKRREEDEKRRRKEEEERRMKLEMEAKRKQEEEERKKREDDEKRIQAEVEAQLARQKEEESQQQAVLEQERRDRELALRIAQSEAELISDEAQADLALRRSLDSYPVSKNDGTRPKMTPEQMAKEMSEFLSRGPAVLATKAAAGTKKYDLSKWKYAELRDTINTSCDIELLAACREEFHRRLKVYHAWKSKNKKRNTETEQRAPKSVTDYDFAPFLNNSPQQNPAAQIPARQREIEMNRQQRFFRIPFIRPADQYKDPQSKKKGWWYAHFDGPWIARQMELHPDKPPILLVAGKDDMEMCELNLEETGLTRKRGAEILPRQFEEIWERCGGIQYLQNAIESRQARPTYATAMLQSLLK", "UniProt Q9BQG0": "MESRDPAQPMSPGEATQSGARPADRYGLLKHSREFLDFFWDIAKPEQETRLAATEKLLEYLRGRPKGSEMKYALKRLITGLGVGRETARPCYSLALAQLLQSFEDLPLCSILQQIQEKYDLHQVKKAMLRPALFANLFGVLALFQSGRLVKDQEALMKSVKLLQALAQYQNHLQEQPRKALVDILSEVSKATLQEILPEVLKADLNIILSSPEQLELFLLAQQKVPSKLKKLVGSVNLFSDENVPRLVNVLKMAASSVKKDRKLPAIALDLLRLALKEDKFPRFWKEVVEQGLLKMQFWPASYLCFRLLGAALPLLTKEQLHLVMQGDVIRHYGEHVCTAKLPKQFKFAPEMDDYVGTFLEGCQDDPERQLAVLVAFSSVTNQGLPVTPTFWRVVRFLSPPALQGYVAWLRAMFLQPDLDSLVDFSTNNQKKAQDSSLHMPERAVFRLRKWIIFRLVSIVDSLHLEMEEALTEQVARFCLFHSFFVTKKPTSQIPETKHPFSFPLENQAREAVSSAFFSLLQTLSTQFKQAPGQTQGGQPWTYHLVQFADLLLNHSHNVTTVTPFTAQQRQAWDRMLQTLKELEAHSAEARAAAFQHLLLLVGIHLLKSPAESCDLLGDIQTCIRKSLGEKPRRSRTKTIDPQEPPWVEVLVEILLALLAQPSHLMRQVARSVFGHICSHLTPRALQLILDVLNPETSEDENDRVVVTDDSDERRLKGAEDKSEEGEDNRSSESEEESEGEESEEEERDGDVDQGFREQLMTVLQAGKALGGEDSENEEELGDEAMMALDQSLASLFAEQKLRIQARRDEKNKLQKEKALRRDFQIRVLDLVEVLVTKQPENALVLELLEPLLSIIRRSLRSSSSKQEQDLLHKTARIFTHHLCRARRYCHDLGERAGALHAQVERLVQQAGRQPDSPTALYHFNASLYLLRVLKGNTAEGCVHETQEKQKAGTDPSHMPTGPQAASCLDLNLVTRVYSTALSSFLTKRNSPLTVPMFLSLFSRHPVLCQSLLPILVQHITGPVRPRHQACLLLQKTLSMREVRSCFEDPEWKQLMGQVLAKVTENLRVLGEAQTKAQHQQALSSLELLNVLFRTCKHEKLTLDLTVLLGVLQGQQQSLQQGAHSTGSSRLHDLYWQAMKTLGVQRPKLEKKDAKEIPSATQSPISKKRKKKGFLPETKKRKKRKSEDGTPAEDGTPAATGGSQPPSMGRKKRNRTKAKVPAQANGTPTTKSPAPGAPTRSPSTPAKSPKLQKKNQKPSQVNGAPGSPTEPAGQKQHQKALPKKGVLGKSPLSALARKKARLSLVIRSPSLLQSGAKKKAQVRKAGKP", "UniProt Q9GZZ1": "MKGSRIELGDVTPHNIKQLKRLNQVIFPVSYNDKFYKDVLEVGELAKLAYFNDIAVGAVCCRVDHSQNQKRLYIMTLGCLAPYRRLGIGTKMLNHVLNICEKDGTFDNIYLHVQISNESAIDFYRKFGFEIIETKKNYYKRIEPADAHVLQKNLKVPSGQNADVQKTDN", "UniProt P43246": "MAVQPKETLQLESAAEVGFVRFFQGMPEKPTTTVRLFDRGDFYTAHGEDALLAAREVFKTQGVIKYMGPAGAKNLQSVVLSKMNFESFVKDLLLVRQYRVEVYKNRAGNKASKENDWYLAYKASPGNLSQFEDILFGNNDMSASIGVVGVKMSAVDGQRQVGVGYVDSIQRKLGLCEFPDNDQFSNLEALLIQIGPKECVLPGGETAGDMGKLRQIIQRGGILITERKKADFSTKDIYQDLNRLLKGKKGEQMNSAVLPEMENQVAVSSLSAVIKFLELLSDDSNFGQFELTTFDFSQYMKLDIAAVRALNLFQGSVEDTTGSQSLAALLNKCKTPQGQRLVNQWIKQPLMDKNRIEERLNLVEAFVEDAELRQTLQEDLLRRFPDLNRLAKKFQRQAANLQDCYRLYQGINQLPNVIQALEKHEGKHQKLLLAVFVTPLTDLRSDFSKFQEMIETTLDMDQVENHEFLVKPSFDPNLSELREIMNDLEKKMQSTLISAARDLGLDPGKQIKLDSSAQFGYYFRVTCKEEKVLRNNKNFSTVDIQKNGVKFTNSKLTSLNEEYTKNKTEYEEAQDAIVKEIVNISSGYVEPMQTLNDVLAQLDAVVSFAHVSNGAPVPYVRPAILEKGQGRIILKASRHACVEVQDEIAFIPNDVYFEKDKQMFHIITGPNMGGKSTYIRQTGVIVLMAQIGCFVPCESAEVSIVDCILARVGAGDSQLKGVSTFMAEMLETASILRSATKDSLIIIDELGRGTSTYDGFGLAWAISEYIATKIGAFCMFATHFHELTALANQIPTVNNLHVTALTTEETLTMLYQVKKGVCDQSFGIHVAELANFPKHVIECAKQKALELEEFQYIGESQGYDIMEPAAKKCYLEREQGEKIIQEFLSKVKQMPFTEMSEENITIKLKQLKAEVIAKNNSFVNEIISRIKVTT", "UniProt Q03426, 331-357": "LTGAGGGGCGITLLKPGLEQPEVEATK", "UniProt Q13615": "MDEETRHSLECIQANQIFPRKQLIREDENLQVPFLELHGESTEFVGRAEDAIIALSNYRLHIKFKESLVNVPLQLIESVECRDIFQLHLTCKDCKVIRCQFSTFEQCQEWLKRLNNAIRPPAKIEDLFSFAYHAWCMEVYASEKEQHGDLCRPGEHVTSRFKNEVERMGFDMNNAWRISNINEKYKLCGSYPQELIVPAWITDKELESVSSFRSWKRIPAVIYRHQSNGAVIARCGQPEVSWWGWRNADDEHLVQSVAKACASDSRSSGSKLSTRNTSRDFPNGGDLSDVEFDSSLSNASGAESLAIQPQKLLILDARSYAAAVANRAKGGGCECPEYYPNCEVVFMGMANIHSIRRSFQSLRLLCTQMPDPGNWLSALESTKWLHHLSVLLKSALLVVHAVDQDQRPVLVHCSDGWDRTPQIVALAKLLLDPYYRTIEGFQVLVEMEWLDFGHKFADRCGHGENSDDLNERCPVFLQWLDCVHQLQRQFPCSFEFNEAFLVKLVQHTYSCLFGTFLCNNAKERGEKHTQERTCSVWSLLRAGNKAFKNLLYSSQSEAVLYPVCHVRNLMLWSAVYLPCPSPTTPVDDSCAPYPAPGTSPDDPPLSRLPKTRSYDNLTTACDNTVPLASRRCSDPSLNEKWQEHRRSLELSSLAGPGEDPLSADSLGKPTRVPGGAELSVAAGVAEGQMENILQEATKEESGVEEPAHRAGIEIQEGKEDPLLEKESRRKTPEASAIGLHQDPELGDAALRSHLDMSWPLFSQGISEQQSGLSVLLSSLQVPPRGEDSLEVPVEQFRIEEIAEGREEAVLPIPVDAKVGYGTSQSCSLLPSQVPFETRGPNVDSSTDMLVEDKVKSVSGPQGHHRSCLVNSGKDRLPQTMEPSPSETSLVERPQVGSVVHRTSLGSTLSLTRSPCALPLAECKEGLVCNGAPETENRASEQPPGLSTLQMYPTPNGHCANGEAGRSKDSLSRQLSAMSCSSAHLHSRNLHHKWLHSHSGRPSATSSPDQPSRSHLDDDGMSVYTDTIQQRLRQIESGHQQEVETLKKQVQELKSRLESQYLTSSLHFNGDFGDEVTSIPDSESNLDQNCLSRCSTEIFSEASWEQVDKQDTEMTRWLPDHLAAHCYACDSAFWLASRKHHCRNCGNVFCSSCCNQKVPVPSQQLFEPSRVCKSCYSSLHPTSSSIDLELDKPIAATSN", "UniProt P35580, 87-106": "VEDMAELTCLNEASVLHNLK", "UniProt Q9BUK6": "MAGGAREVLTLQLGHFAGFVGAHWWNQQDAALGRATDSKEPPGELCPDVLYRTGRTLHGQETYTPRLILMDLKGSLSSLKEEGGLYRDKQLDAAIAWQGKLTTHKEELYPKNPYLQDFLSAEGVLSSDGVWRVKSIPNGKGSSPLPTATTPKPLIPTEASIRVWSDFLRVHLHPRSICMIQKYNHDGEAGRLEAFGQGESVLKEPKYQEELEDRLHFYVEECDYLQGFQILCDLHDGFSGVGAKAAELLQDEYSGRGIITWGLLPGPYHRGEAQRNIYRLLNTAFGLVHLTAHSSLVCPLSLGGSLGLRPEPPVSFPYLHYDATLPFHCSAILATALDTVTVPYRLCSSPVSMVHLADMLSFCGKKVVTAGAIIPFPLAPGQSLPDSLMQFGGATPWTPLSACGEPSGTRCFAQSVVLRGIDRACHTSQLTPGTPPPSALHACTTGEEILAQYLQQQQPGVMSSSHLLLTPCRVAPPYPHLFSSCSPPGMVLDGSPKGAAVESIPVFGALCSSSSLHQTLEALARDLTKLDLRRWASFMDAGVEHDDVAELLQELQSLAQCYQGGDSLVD", "UniProt Q9Y4B5, 1336-1363": "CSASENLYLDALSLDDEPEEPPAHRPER"},
  "source": "the supplement of paper PMC11732987",
  "about": "“Enantioselective OTUD7B fragment discovery through chemoproteomics screening and high-throughput optimisation” (Communications Chemistry, 2025)",
  "key": {"[1]": {"compound": "ClCC(=O)N[C@@H]1CCCc2ccccc12", "test": "log2 mean competition ratio of IA-DTB cysteine labelling (DMSO/compound) (log2 ratio); higher = stronger cysteine engagement by compound", "conditions": "treatment time: 4 h, cell line lysate: HEK293T", "method": "(§1)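 IA-DTB competitive cysteine chemoproteomics in HEK293T RIPA lysate. Lysates were treated with compound 29 or 30 at 50 or 200 µM for 4 h, then IA-DTB (500 µM, 1 h), trypsin-digested, NeutrAvidin-enriched and analysed by diaPASEF. Competition ratio = intensity DMSO / intensity compound (n=4 treated, n=64 DMSO); binding: mean log2 CR ≥ 1 and p ≤ 0.05 plus QC filters. Target is the cysteine site.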"}, "[2]": {"compound": "ClCC(=O)N[C@H]1CCCc2ccccc12", "test": "log2 mean competition ratio of IA-DTB cysteine labelling (DMSO/compound) (log2 ratio); higher = stronger cysteine engagement by compound", "conditions": "treatment time: 4 h, cell line lysate: HEK293T", "method": "as §1"}},
  "note": "The list shows a part of the results. The data scatter; read single values as rough.",
  "data": [
    {"target": "MYO6 C252 (UniProt Q9UM54)", "values": [
      {"measurement": "log2 mean competition ratio", "setting": "[1]; 50 µM", "result": 0.0344},
      {"measurement": "log2 mean competition ratio", "setting": "[1]; 200 µM", "result": -0.0249},
      {"measurement": "log2 mean competition ratio", "setting": "[2]; 50 µM", "result": -0.24},
      {"measurement": "log2 mean competition ratio", "setting": "[2]; 200 µM", "result": -0.107}
    ]},
    {"target": "MYBBP1A C942 (UniProt Q9BQG0)", "values": [
      {"measurement": "log2 mean competition ratio", "setting": "[1]; 50 µM", "result": 0.0746},
      {"measurement": "log2 mean competition ratio", "setting": "[1]; 200 µM", "result": -0.185},
      {"measurement": "log2 mean competition ratio", "setting": "[2]; 50 µM", "result": 0.031},
      {"measurement": "log2 mean competition ratio", "setting": "[2]; 200 µM", "result": -0.237}
    ]},
    {"target": "MTMR1 C58 (UniProt Q13613)", "values": [
      {"measurement": "log2 mean competition ratio", "setting": "[1]; 50 µM", "result": -0.449},
      {"measurement": "log2 mean competition ratio", "setting": "[1]; 200 µM", "result": 0.305},
      {"measurement": "log2 mean competition ratio", "setting": "[2]; 50 µM", "result": 0.0771},
      {"measurement": "log2 mean competition ratio", "setting": "[2]; 200 µM", "result": 0.285}
    ]},
    {"target": "NAA50 C100 (UniProt Q9GZZ1)", "values": [
      {"measurement": "log2 mean competition ratio", "setting": "[1]; 50 µM", "result": 0.0202},
      {"measurement": "log2 mean competition ratio", "setting": "[1]; 200 µM", "result": -0.22},
      {"measurement": "log2 mean competition ratio", "setting": "[2]; 50 µM", "result": 0.184},
      {"measurement": "log2 mean competition ratio", "setting": "[2]; 200 µM", "result": -0.0333}
    ]},
    {"target": "MSH2 C199 (UniProt P43246)", "values": [
      {"measurement": "log2 mean competition ratio", "setting": "[1]; 50 µM", "result": -0.0487},
      {"measurement": "log2 mean competition ratio", "setting": "[1]; 200 µM", "result": -0.267},
      {"measurement": "log2 mean competition ratio", "setting": "[2]; 50 µM", "result": 0.121},
      {"measurement": "log2 mean competition ratio", "setting": "[2]; 200 µM", "result": -0.176}
    ]},
    {"target": "MRPL43 C91 (UniProt Q8N983)", "values": [
      {"measurement": "log2 mean competition ratio", "setting": "[1]; 50 µM", "result": -0.0573},
      {"measurement": "log2 mean competition ratio", "setting": "[1]; 200 µM", "result": -0.128},
      {"measurement": "log2 mean competition ratio", "setting": "[2]; 50 µM", "result": 0.0615},
      {"measurement": "log2 mean competition ratio", "setting": "[2]; 200 µM", "result": 0.297}
    ]},
    {"target": "MVK C339 (UniProt Q03426)", "values": [
      {"measurement": "log2 mean competition ratio", "setting": "[1]; 50 µM", "result": 0.447},
      {"measurement": "log2 mean competition ratio", "setting": "[1]; 200 µM", "result": 0.0591},
      {"measurement": "log2 mean competition ratio", "setting": "[2]; 50 µM", "result": 0.57},
      {"measurement": "log2 mean competition ratio", "setting": "[2]; 200 µM", "result": -0.0741}
    ]},
    {"target": "NAMPT C397", "values": [
      {"measurement": "log2 mean competition ratio", "setting": "[1]; 50 µM", "result": -0.1},
      {"measurement": "log2 mean competition ratio", "setting": "[1]; 200 µM", "result": -0.0168},
      {"measurement": "log2 mean competition ratio", "setting": "[2]; 50 µM", "result": -0.0442},
      {"measurement": "log2 mean competition ratio", "setting": "[2]; 200 µM", "result": 0.141}
    ]},
    {"target": "NAP1L3 C118", "values": [
      {"measurement": "log2 mean competition ratio", "setting": "[1]; 50 µM", "result": -0.372},
      {"measurement": "log2 mean competition ratio", "setting": "[1]; 200 µM", "result": 0.0126},
      {"measurement": "log2 mean competition ratio", "setting": "[2]; 50 µM", "result": 0.0429},
      {"measurement": "log2 mean competition ratio", "setting": "[2]; 200 µM", "result": 0.0894}
    ]},
    {"target": "MYCBP2 C4558 (UniProt O75592)", "values": [
      {"measurement": "log2 mean competition ratio", "setting": "[1]; 50 µM", "result": -0.0219},
      {"measurement": "log2 mean competition ratio", "setting": "[1]; 200 µM", "result": -0.0667},
      {"measurement": "log2 mean competition ratio", "setting": "[2]; 50 µM", "result": 0.0398},
      {"measurement": "log2 mean competition ratio", "setting": "[2]; 200 µM", "result": 0.0213}
    ]},
    {"target": "MTMR3 C632 (UniProt Q13615)", "values": [
      {"measurement": "log2 mean competition ratio", "setting": "[1]; 50 µM", "result": -0.0348},
      {"measurement": "log2 mean competition ratio", "setting": "[1]; 200 µM", "result": 0.199},
      {"measurement": "log2 mean competition ratio", "setting": "[2]; 50 µM", "result": -0.455},
      {"measurement": "log2 mean competition ratio", "setting": "[2]; 200 µM", "result": 0.651}
    ]},
    {"target": "MTUS1 C492 (UniProt Q9ULD2)", "values": [
      {"measurement": "log2 mean competition ratio", "setting": "[1]; 50 µM", "result": 0.0811},
      {"measurement": "log2 mean competition ratio", "setting": "[1]; 200 µM", "result": 0.0884},
      {"measurement": "log2 mean competition ratio", "setting": "[2]; 50 µM", "result": 0.0541},
      {"measurement": "log2 mean competition ratio", "setting": "[2]; 200 µM", "result": 0.0411}
    ]},
    {"target": "MTHFD1L C302", "values": [
      {"measurement": "log2 mean competition ratio", "setting": "[1]; 50 µM", "result": -0.0302},
      {"measurement": "log2 mean competition ratio", "setting": "[1]; 200 µM", "result": 0.246},
      {"measurement": "log2 mean competition ratio", "setting": "[2]; 50 µM", "result": -0.139},
      {"measurement": "log2 mean competition ratio", "setting": "[2]; 200 µM", "result": 0.148}
    ]},
    {"target": "MYH10 C95 (UniProt P35580)", "values": [
      {"measurement": "log2 mean competition ratio", "setting": "[1]; 50 µM", "result": 0.091},
      {"measurement": "log2 mean competition ratio", "setting": "[1]; 200 µM", "result": -0.289},
      {"measurement": "log2 mean competition ratio", "setting": "[2]; 50 µM", "result": -0.269},
      {"measurement": "log2 mean competition ratio", "setting": "[2]; 200 µM", "result": -0.559}
    ]},
    {"target": "MTOR C1660 (UniProt P42345)", "values": [
      {"measurement": "log2 mean competition ratio", "setting": "[1]; 50 µM", "result": -0.0202},
      {"measurement": "log2 mean competition ratio", "setting": "[1]; 200 µM", "result": -0.0744},
      {"measurement": "log2 mean competition ratio", "setting": "[2]; 50 µM", "result": 0.282},
      {"measurement": "log2 mean competition ratio", "setting": "[2]; 200 µM", "result": -0.0727}
    ]},
    {"target": "MYO6 C610 (UniProt Q9UM54)", "values": [
      {"measurement": "log2 mean competition ratio", "setting": "[1]; 50 µM", "result": 0.0656},
      {"measurement": "log2 mean competition ratio", "setting": "[1]; 200 µM", "result": 0.0435},
      {"measurement": "log2 mean competition ratio", "setting": "[2]; 50 µM", "result": -0.0828},
      {"measurement": "log2 mean competition ratio", "setting": "[2]; 200 µM", "result": -0.179}
    ]},
    {"target": "MSTO1 C46 (UniProt Q9BUK6)", "values": [
      {"measurement": "log2 mean competition ratio", "setting": "[1]; 50 µM", "result": -0.0804},
      {"measurement": "log2 mean competition ratio", "setting": "[1]; 200 µM", "result": 0.331},
      {"measurement": "log2 mean competition ratio", "setting": "[2]; 50 µM", "result": -0.343},
      {"measurement": "log2 mean competition ratio", "setting": "[2]; 200 µM", "result": 0.185}
    ]},
    {"target": "NARS1 C438", "values": [
      {"measurement": "log2 mean competition ratio", "setting": "[1]; 50 µM", "result": 0.909},
      {"measurement": "log2 mean competition ratio", "setting": "[1]; 200 µM", "result": 0.336},
      {"measurement": "log2 mean competition ratio", "setting": "[2]; 50 µM", "result": -0.407},
      {"measurement": "log2 mean competition ratio", "setting": "[2]; 200 µM", "result": -0.0177}
    ]},
    {"target": "MYO9A C735 (UniProt B2RTY4)", "values": [
      {"measurement": "log2 mean competition ratio", "setting": "[1]; 50 µM", "result": -0.284},
      {"measurement": "log2 mean competition ratio", "setting": "[1]; 200 µM", "result": 0.438},
      {"measurement": "log2 mean competition ratio", "setting": "[2]; 50 µM", "result": -0.195},
      {"measurement": "log2 mean competition ratio", "setting": "[2]; 200 µM", "result": 0.386}
    ]},
    {"target": "MRPL20 C93 (UniProt Q9BYC9)", "values": [
      {"measurement": "log2 mean competition ratio", "setting": "[1]; 50 µM", "result": 0.347},
      {"measurement": "log2 mean competition ratio", "setting": "[1]; 200 µM", "result": -0.0689},
      {"measurement": "log2 mean competition ratio", "setting": "[2]; 50 µM", "result": 0.476},
      {"measurement": "log2 mean competition ratio", "setting": "[2]; 200 µM", "result": -0.119}
    ]},
    {"target": "MRPS18A C118 (UniProt Q9NVS2)", "values": [
      {"measurement": "log2 mean competition ratio", "setting": "[1]; 50 µM", "result": -0.235},
      {"measurement": "log2 mean competition ratio", "setting": "[1]; 200 µM", "result": 0.0817},
      {"measurement": "log2 mean competition ratio", "setting": "[2]; 50 µM", "result": -0.0871},
      {"measurement": "log2 mean competition ratio", "setting": "[2]; 200 µM", "result": 0.0171}
    ]},
    {"target": "MTCL1 C1336 (UniProt Q9Y4B5)", "values": [
      {"measurement": "log2 mean competition ratio", "setting": "[1]; 50 µM", "result": 0.448},
      {"measurement": "log2 mean competition ratio", "setting": "[1]; 200 µM", "result": -0.00173},
      {"measurement": "log2 mean competition ratio", "setting": "[2]; 50 µM", "result": 0.501},
      {"measurement": "log2 mean competition ratio", "setting": "[2]; 200 µM", "result": -0.116}
    ]}
  ]
}
